Assay results reported in patent publication US6887878B2, “KMST isoeugenol derivatives and pharmaceutical activity” (Ing-Jun Chen, priority 2003, dated 2005).

Tested on: lipid peroxidation in rat brain homogenate
Assay: lipid peroxidation initiated by Fe2+-ascorbic acid in rat brain homogenates (TBARS)
Format: biochemical
Details: read-out: IC50 inhibiting lipid peroxidation initiated by Fe2+-ascorbic acid
Method: Rat brain homogenate was made in 0.9% saline containing 10 mg tissue/ml. The rates of membrane lipid peroxidation were measured by the formation of thiobarbituric acid (TBA)-reactive substance (TBARS). Rat brain homogenates (1 ml) were incubated at 37° C. for 5 min with 10 μl of test compound or vehicle. Lipid peroxidation was initiated by the addition of 0.1 ml of 0.25 mM FeCl2 and 1 mM ascorbic acid (Huang Y C. et al., Drug. Dev. Res., 47:77-89, 1999). After 30 min of incubation, the reaction was stopped by adding 0.1 ml of 0.2% BHT. TBA reagent was then added and the mixture was heated for 30 min in a boiling water bath. TBARS was extracted by n-butanol and measured at 532 nm. The amount of TBARS was quantified using the linear regression obtained from malondialdehyde (MDA) standards.

IC50: 60.6 ± 0.76 µM
Compound: O=c1n(CCCN2CCN(c3cccc(Cl)c3)CC2)nc2ccccn12 [Trazodone]
